In patent US7074812B2, “Development of muscle mass in a mammal” (Nutraleutical Development Corporation, priority 2002, dated 2006):

System: healthy male mice
Settings: 60 micrograms nicotine/ml drinking water

CN1CCCC1c1cccnc1 (centres unmarked) [Nicotine, nicotine]
change of food consumption over time: does not show significant change over time | food consumed less in days 15~21 compared to days 1~7 (control 30 grams less): 6 grams
